Data as given in US7851592B2, “Compositions and methods for inhibiting G2 cell cycle arrest and sensitizing cells to DNA damaging agents” (CanBas Co. Ltd., priority 1999, dated 2010).
At least one peptide structure holds a part that was inferred or is arguable (an end, a ring closure or a residue). Where no end group is shown, it is not given here.

Legend:
Assay type in all cases: cell-based, human
PANC1 cells = experiment: Cell cytotoxicity (XTT) assay, PANC1; conditions: FIG. 4A; bleomycin 60 μg/ml; peptide 10 μM
[1] = system: histone H1 kinase activity; experiment: Histone H1 kinase assay on lysates of treated Jurkat cells; conditions: FIG. 2B; bleomycin 10 μg/ml; peptide 10 μM; 6 hr
Experimental: Histone H1 kinase assay. Ten million Jurkat cells were treated with hydroxyurea (100 μg/ml), bleomycin (10 μg/ml), or colchicine (5 μg/ml) with or without addition of TAT-S216A, TAT-S216 or TAT-Control (10 μM) for 6 hr. The cells were washed in cold PBS and lysed at 4° C. in 1 ml of buffer A (50 mM Tris pH 8, 2 mM DTT, 5 mM EDTA, 100 mM NaCl, 0.5% NP40, 20 mM Na3V04, 50 mM NaF, 4 μM Okadaic acid, 5 μg/ml aprotinin, 5 μg/ml pepstatin A and 5 μg/ml leupeptin.). Twenty microliter of p13^suc1 agarose beads (Upstate Biotechnology., Saranac, N.Y.) were added to the cleared lysates, incubated for 4 hr at 4° C., and washed five times with buffer A without 5 mM EDTA, 20 mM Na3V04, 50 mM NaF, 4 μM Okadaic acid. Histone HI kinase activity on the beads were analyzed by using Cdc2 kinase assay kit (Upstate Biotechnology) with [γ-^32P] ATP, followed by 12% SDS-PAGE electrophoresis, and autoradiographed to detect the phosphorylated Histone H1.
The cell cycle status of the cells treated with TAT-S216A or TAT-S216 upon the DNA damage-induced G2 arrest was analyzed by FACS analysis. Histone H1 kinase activities of theses cells were simultaneously monitored. […] Results are shown in FIG. 2: abrogation of DNA damage-induced G2 arrest by TAT-S216A and TAT-S216 peptides. FIG. 2A, FACS analysis of Jurkat cells treated with bleomycin and peptides. […]

Jurkat cells = experiment: FACS analysis of colchicine-induced M-phase arrest; conditions: FIG. 2C; colchicine 5 μg/ml; peptide 10 μM; 20 hr
MIA PaCa2 cells = experiment: Cell cytotoxicity (XTT) assay, MIA PaCa2; conditions: FIG. 4B; bleomycin 60 μg/ml; peptide 10 μM

Sequence | sensitization of PANC1 cells to bleomycin-induced cell death (PANC1 cells) | histone H1 kinase activity on bleomycin treatment in the presence of peptide [1] | M-phase arrest induced by colchicine (Jurkat cells) | sensitization of MIA PaCa2 cells to bleomycin-induced cell death (MIA PaCa2 cells)
YGRKKRRQRRRLYRSPAMPENL [TAT-S216A] | sensitized to the bleomycin-induced cell death | unchanged or rather increased | not affected | sensitized to the bleomycin-induced cell death
YGRKKRRQRRRLYRSPSMPENL [TAT-S216] | sensitized to the bleomycin-induced cell death | unchanged or rather increased | not affected | sensitized to the bleomycin-induced cell death
